# Measured values: US5196352A, “New FK-506 cytosolic binding protein” (Merck & Co., Inc., priority 1991, dated 1993)
# Test system: JURKAT cells
# Assay: Subcellular distribution of [3H]FK-506 in JURKAT cells
# Assay type: cell-based, human
# Conditions: 6 nM, 30 min
smiles,measurement,setting,value
"[3H]CC([3H])C[C@@H]1/C=C(\C)C[C@H](C)C[C@H](OC)[C@H]2O[C@@](O)(C(=O)C(=O)N3CCCC[C@H]3C(=O)O[C@H](/C(C)=C/[C@@H]3CC[C@@H](O)[C@H](OC)C3)[C@H](C)[C@@H](O)CC1=O)[C@H](C)C[C@@H]2OC (some centres unmarked) [[^3 H]FK-506, [^3 H]-dihydro FK-506]",[^3 H]FK-506 Bound (cpm),cytosol,"207,879 cpm"
same,% of Total,nuclear pellet,1.7%
same,[^3 H]FK-506 Bound (cpm),nuclear pellet,"3,581 cpm"
same,% of Total,plasma membrane,0.9%
same,[^3 H]FK-506 Bound (cpm),plasma membrane,"1,824 cpm"
